According to US12624064 (dated 2026):

How the values were obtained:
[1] = general procedure: Fmoc solid-phase peptide synthesis; Rinkamide RAM; Rink-Amide polystyrene resin; conditions: for step yield: purification step; for oxidative folding yield / final HPLC purity: oxidative folding step; for final HPLC purity: UV210; for crude HPLC purity: UV210, scale 100 μmol
[2] = general procedure: Fmoc solid-phase peptide synthesis; Rink-Amide polystyrene; conditions: whole synthesis, abs. 210 nm, scale 10 μmol
[3] = whole synthesis, UPLC-MS, UV 210 nm, scale of the general procedure 100 μmol (P1-P3), 10 μmol (P4)

In the case of Bivalrudin, the step yield [1] is reported as 89%, the “crude LC-MS purity” value [1, 3] is reported as 40% and the “final LC-MS purity” value [1, 3] is reported as 90%.

In the case of “H-CRVPGDAHHADSLC-NH2 (cysteine pairing not given here)”, the oxidative folding yield [1] is reported as over 99%, the “final HPLC purity” value [1] is reported as 67% and the “crude HPLC purity” value ([1]; whole synthesis) is reported as 72%.

For H-ELROHLLRWGLTTPD—NH2, the “crude HPLC purity” value [2] was 34%, the step yield [1] was “recovery of 85%” and the isolated mass ([1]; whole synthesis) was 6.2 mg. It also gave a crude mass ([1]; whole synthesis, scale 10 μmol) of 20.3 mg and an isolated yield ([1]; whole synthesis, scale of the general procedure 100 μmol (P1-P3), 10 μmol (P4)) of 29%.

For “H-VRCPGAAHHADSLC-NH2 (cysteine pairing not given here)”, the oxidative folding yield [1] was over 99%, the “final HPLC purity” value [1] was 53% and the “crude HPLC purity” value ([1]; whole synthesis) was 69%.

In the case of “H-VRVPGCAHCADSLY-NH2 (cysteine pairing not given here)”, the oxidative folding yield [1] is reported as over 99%, the “final HPLC purity” value [1] is reported as 56% and the “crude HPLC purity” value ([1]; whole synthesis) is reported as 59%.
